Assay results: the supplement of paper PMC8732350
Values joined by “and” are separate entries in the source; they are usually repeats but may differ in a detail not shown here. Equal values may be shown once. Where a name gives a salt, the structure may show the parent alone. ± gives the standard deviation of the averaged measurements. Some of the results follow. Repeats in this data set agree poorly, so a single value says little.

Tested on: A549
Test: surface PD-L1 immunofluorescence intensity relative to IFN-gamma-only control (ratio); higher = more PD-L1 expression
Settings: 10 µM; exposure time 24 h; IFN-gamma 100 ng/mL

SMILES | surface PD-L1 immunofluorescence intensity
COc1ccc(CNC(=O)Nc2ncc([N+](=O)[O-])s2)cc1 | 1.12 ± 0.097
C=CC1=C(C(=O)O)N2C(=O)[C@@H](NC(=O)/C(=N\OCC(=O)O)c3csc(N)n3)[C@H]2SC1 [Cefixime] | 1
Nc1cccc2c1CN(C1CCC(=O)NC1=O)C2=O (configuration not stated) [Lenalidomide (Revlimid)] | 1.07
CC(=O)Nc1ccc(O)cc1 [Acetaminophen] | 1.08
O=C(Nc1ccc(-c2ccnc(Nc3ccc(N4CCOCC4)cc3)n2)cc1)C1CCCN1 (configuration not stated) | 0.906
COc1nc(-c2ccc3c(c2)OCO3)n(-c2ccc(NC(=O)CSc3ccccc3)cc2)n1 [SecinH3] | 0.987
COc1ccc2[nH]c([S+]([O-])Cc3ncc(C)c(OC)c3C)nc2c1 (configuration not stated) [Omeprazole] | 1.042 ± 0.0053
CO/N=C(\C(=O)N[C@@H]1C(=O)N2C(C(=O)O)=C(C[N+]3(C)CCCC3)CS[C@H]12)c1csc(N)n1 [Cefepime hydrochloride] | 0.96
CCOC(=O)[C@H](CCc1ccccc1)N[C@@H](C)C(=O)N1CCC[C@H]1C(=O)O [Enalapril maleate] | 0.973
O=C1CC2(CCCC2)CC(=O)N1CCNCC1COc2ccccc2O1 (configuration not stated) | 0.978
C[C@]12CC[C@@H]3c4ccc(O)cc4CC[C@H]3[C@@H]1C[C@@H](O)[C@@H]2O [Estriol] | 0.942 ± 0.14
CN(C)CCCO[C@@H]1[C@H]2OC(C)(C)O[C@H]2O[C@@H]1[C@H](O)CO [Amiprilose hydrochloride] | 0.921
CCC[C@H](NC(=O)[C@@H]1[C@H]2CCC[C@H]2CN1C(=O)[C@@H](NC(=O)[C@@H](NC(=O)c1cnccn1)C1CCCCC1)C(C)(C)C)C(=O)C(=O)NC1CC1 [Telaprevir (VX-950)] | 1.07
Cc1noc(NS(=O)(=O)c2ccc(N)cc2)c1C [Sulfisoxazole] | 1.11 ± 0.082
CCc1cccc2c3c([nH]c12)C(CC)(CC(=O)O)OCC3 (configuration not stated) [Etodolac (Lodine)] | 0.983
CC[N+](CC)(CC)CCC(O)(c1ccccc1)C1CCCCC1 (configuration not stated) [Tridihexethyl chloride] | 1.03
C[C@@H]1CN(CC(=O)Nc2ccc3c(c2)Cc2cccc(-c4cc(=O)cc(N5CCOCC5)o4)c2S3)C[C@H](C)O1 | 0.965
C=CC(=O)N1CCC[C@@H](n2nc(-c3ccc(Oc4ccccc4)cc3)c3c(N)ncnc32)C1 | 1.12 ± 0.11
C=CC(=O)Nc1ccc2ncnc(Nc3ccc(OCc4cccc(F)c4)c(Cl)c3)c2c1 | 1.03
CC1=C(CC(=O)O)c2cc(F)ccc2/C1=C\c1ccc([S+](C)[O-])cc1 (configuration not stated) [Sulindac] | 0.992 ± 0.089
CC(Oc1c(Cl)cccc1Cl)C1=NCCN1 (configuration not stated) [Lofexidine] | 0.936
Cn1c(=O)cc(N2CCC[C@@H](N)C2)n(Cc2ccccc2C#N)c1=O [Alogliptin (SYR-322)] | 0.954
CCCCCCCN(CC)CCCC(O)c1ccc(NS(C)(=O)=O)cc1 (configuration not stated) [Ibutilide fumarate] | 0.997
Cc1nnc(C(C)C)n1C1C[C@H]2CC[C@@H](C1)N2CC[C@H](NC(=O)C1CCC(F)(F)CC1)c1ccccc1 (stereo in doubt) [Maraviroc] | 1.06
COc1ccc(-c2cc(=O)c3c(O)cc(O[C@@H]4O[C@H](CO[C@@H]5O[C@@H](C)[C@H](O)[C@@H](O)[C@H]5O)[C@@H](O)[C@H](O)[C@H]4O)cc3o2)cc1O [Diosmin] | 1.01 ± 0.11
CS(=O)(=O)CCNCc1nc(-c2ccc3ncnc(Nc4ccc(OCc5cccc(F)c5)c(Cl)c4)c3c2)cs1 | 1.05

Looked up above.
In surface PD-L1 immunofluorescence intensity, CC[N+](CC)(CC)CCC(O)(c1ccccc1)C1CCCCC1 (configuration not stated) [Tridihexethyl chloride] has 1.03
In surface PD-L1 immunofluorescence intensity, CCOC(=O)[C@H](CCc1ccccc1)N[C@@H](C)C(=O)N1CCC[C@H]1C(=O)O [Enalapril maleate] has 0.973

Carrying on:

SMILES | surface PD-L1 immunofluorescence intensity
CC1CS(=O)(=O)CCN1/N=C/c1ccc([N+](=O)[O-])o1 (configuration not stated) [Nifurtimox] | 0.953
CCOC(=O)c1ncc2[nH]c3cccc(OC(C)C)c3c2c1C | 0.882
CN1CC2c3ccccc3Oc3ccc(Cl)cc3C2C1 (configuration not stated) [Asenapine maleate] | 0.956 ± 0.015
c1ccc2[nH]c(-c3cscn3)nc2c1 [Tiabendazole] | 0.896
Cn1cc(-c2ccc3nnc(C(F)(F)c4ccc5ncccc5c4)n3n2)cn1 | 0.976
CCC(CC)CC1(C(=O)Nc2ccccc2SC(=O)C(C)C)CCCCC1 [Dalcetrapib (JTT-705)] | 1.07
CN1[C@@H](CC(=O)c2ccccc2)CCC[C@H]1C[C@H](O)c1ccccc1 [Lobeline hydrochloride] | 1.13
CN(C)[C@@H]1C(O)=C(C(N)=O)C(=O)[C@@]2(O)C(O)=C3C(=O)c4c(O)ccc(Cl)c4[C@@](C)(O)[C@H]3C[C@@H]12 [Chlortetracycline hydrochloride] | 0.994
CC(=O)N(CC(C)C(=O)O)c1c(I)cc(I)c(N)c1I (configuration not stated) [Iocetamic acid] | 0.926
CC(C)[C@H](N)C(=O)N[C@H](C(=O)N[C@H](C(=O)O)C(C)C)C(C)C | 0.856
c1ccc(N2CCN(Cc3nc4ccccc4[nH]3)CC2)nc1 [ABT 724 trihydrochloride] | 1.02
COC(=O)c1c(-c2cc(OC)c(OC)c(OC)c2)c2ccnc(OCc3ncccn3)c2c(=O)n1Cc1ccnc(C)c1 [T 0156 hydrochloride] | 0.964
C[C@]12CC[C@@H]3c4ccc(O)cc4CC[C@H]3[C@@H]1CCC2=O [Estrone] | 0.98 ± 0.03
CCOC(=O)C1=C[C@]2(CC)CCCN3CCc4c(n1c1ccccc41)[C@@H]32 [Vinpocetine] | 1.01 ± 0.18
CCOC(=O)C1=C[C@]2(CC)CCCN3CCc4c(n1c1ccccc41)[C@@H]32 [Vinpocetine (Cavinton)] | 1.14
COc1cnc(NS(=O)(=O)c2ccc(N)cc2)nc1 [Sulfameter] | 1.04
O=C(O)CCC(=O)Nc1ccc(S(=O)(=O)Nc2nccs2)cc1 [Succinylsulfathiazole] | 0.954
Cn1cnnc1Sc1c([N+](=O)[O-])ncn1C | 0.96
Cc1cccc(CN2CCN(C(c3ccccc3)c3ccc(Cl)cc3)CC2)c1 (configuration not stated) [Meclozine dihydrochloride] | 1.05
COc1ccccc1O [Guaiacol] | 1
CNCCC(Oc1ccccc1OC)c1ccccc1 (configuration not stated) [Nisoxetine hydrochloride] | 1.11
CCCCC(C)(O)C/C=C/[C@H]1[C@H](O)CC(=O)[C@@H]1CCCCCCC(=O)OC (mixture of isomers) [Misoprostol] | 1.09
COc1cc(CCC(C)=O)ccc1O [Vanillylacetone] | 1.03
O=NN(CCCl)C(=O)NC1CCCCC1 [Lomustine (CeeNU)] | 0.936
CC(C)C[C@H](NC(=O)[C@H]1O[C@@H]1C(=O)O)C(=O)NCCCCN=C(N)N | 0.863
CC1(C)NC(=O)N(c2ccc([N+](=O)[O-])c(C(F)(F)F)c2)C1=O [Nilutamide] | 1.11 ± 0.057

SMILES | surface PD-L1 immunofluorescence intensity
N[C@@H](CC(=O)Nc1ccc(Oc2cc(F)c(F)cc2Br)cc1)C(=O)O | 0.939
Cc1[nH]c(/C=C2\C(=O)Nc3ccc(S(=O)(=O)N(C)c4cccc(Cl)c4)cc32)c(C)c1C(=O)N1CCN(C)CC1 | 0.874
CCCCC(CC)CNC(=N)NC(=N)NCCCCCCNC(=N)NC(=N)NCC(CC)CCCC (configuration not stated) [Alexidine dihydrochloride] | 0.983
COC(=O)[C@@H]1[C@H]2C[C@H]3c4[nH]c5ccccc5c4CCN3C[C@@H]2CC[C@@H]1O [Yohimbine hydrochloride] | 1.06 ± 0.14
Oc1c2ccccc2c2c3c(cccc13)N=N2 | 1.03 and 1
Nc1nc(=O)c2c([nH]1)NC[C@@H](CNc1ccc(C(=O)N[C@@H](CCC(=O)O)C(=O)O)cc1)N2C=O [Folinic acid calcium salt] | 1.02
COc1ccc2cc([C@@H](C)C(=O)O)ccc2c1 [(R) -Naproxen sodium salt] | 0.944
CC(C)NCC(O)COc1cccc2ccccc12 (configuration not stated) [Propranolol hydrochloride] | 0.996
Cc1nc(NC(=O)N2CCC[C@H]2C(N)=O)sc1-c1ccnc(C(C)(C)C(F)(F)F)c1 | 0.891
Cc1c[nH]c(=O)n(CCCN2CCN(c3ccccc3OCC(F)(F)F)CC2)c1=O | 0.959
O=C1CCc2cc(OCCCCc3nnnn3C3CCCCC3)ccc2N1 [Cilostazol] | 1.04 ± 0.1
N#C[C@@H]1C[C@@H]2C[C@@H]2N1C(=O)[C@@H](N)C12CC3CC(CC(O)(C3)C1)C2 | 0.914
CCS(=O)(=O)CCn1c([N+](=O)[O-])cnc1C [Tinidazole] | 1.05
C[C@H](CC[C@@H]1OC1(C)C)[C@H]1CC[C@H]2[C@@H]3CC=C4C[C@@H](O)CC[C@]4(C)[C@H]3CC[C@]12C [24(S),25-Epoxycholesterol] | 1.14
CCCCOc1cc(C(=O)NCCN(CC)CC)c2ccccc2n1 [Dibucaine] | 0.887
Oc1ccc(-c2nc3cc(O)cc(Br)c3o2)cc1 | 0.914
O=P(O)(O)C(Cl)(Cl)P(=O)(O)O [Clodronate] | 0.998
Cc1coc2c1C(=O)C(=O)c1c-2ccc2c(C)cccc12 [Tanshinone I] | 1.03
Cc1ccccc1-n1c(Cn2nc(-c3cccc(O)c3)c3c(N)ncnc32)nc2cccc(C)c2c1=O | 0.998
CCC1=C(C)CN(C(=O)NCCc2ccc(S(=O)(=O)NC(=O)N[C@H]3CC[C@H](C)CC3)cc2)C1=O [Glimepiride] | 0.969 ± 0.034
Nc1ncnc2c1ncn2[C@@H]1O[C@H](COP(=O)(O)OP(=O)(O)OP(=O)(O)O)[C@@H](O)[C@H]1O [ATP (Adenosine-Triphosphate)] | 1.11
CC(C)Oc1ccc2c(=O)c3cc(C(=O)O)ccc3oc2c1 | 1.01
CC(=O)N[C@H]1[C@H]([C@H](O)[C@H](O)CO)OC(C(=O)O)=C[C@@H]1NC(=N)N [Zanamivir (Relenza)] | 0.952
Cc1c(C(=O)NN2CCOCC2)nn(-c2ccc(Cl)cc2Cl)c1-c1ccc(I)cc1 | 1
O=C(c1cc(O)c(O)c(O)c1)c1ccc(O)c(O)c1O [Exifone] | 1.01

Five consecutive records already listed:
SMILES | surface PD-L1 immunofluorescence intensity
COc1ccc2cc([C@@H](C)C(=O)O)ccc2c1 [(R) -Naproxen sodium salt] | 0.944
CC(C)NCC(O)COc1cccc2ccccc12 (configuration not stated) [Propranolol hydrochloride] | 0.996
Cc1nc(NC(=O)N2CCC[C@H]2C(N)=O)sc1-c1ccnc(C(C)(C)C(F)(F)F)c1 | 0.891
Cc1c[nH]c(=O)n(CCCN2CCN(c3ccccc3OCC(F)(F)F)CC2)c1=O | 0.959
O=C1CCc2cc(OCCCCc3nnnn3C3CCCCC3)ccc2N1 [Cilostazol] | 1.04 ± 0.1
